Test results reported in article PMC6965642, “The novel missense mutation Met48Lys in FKBP22 changes its structure and functions” (Scientific Reports, 2020).
Results are given in words; binding and its absence hold for the method and conditions named. Some results given as binding are weak or reduced against the parent protein; the word gives no strength.

Chains of the proteins cited; added tags and fusions are not shown. Residues count along the entry.
UniProt P04258: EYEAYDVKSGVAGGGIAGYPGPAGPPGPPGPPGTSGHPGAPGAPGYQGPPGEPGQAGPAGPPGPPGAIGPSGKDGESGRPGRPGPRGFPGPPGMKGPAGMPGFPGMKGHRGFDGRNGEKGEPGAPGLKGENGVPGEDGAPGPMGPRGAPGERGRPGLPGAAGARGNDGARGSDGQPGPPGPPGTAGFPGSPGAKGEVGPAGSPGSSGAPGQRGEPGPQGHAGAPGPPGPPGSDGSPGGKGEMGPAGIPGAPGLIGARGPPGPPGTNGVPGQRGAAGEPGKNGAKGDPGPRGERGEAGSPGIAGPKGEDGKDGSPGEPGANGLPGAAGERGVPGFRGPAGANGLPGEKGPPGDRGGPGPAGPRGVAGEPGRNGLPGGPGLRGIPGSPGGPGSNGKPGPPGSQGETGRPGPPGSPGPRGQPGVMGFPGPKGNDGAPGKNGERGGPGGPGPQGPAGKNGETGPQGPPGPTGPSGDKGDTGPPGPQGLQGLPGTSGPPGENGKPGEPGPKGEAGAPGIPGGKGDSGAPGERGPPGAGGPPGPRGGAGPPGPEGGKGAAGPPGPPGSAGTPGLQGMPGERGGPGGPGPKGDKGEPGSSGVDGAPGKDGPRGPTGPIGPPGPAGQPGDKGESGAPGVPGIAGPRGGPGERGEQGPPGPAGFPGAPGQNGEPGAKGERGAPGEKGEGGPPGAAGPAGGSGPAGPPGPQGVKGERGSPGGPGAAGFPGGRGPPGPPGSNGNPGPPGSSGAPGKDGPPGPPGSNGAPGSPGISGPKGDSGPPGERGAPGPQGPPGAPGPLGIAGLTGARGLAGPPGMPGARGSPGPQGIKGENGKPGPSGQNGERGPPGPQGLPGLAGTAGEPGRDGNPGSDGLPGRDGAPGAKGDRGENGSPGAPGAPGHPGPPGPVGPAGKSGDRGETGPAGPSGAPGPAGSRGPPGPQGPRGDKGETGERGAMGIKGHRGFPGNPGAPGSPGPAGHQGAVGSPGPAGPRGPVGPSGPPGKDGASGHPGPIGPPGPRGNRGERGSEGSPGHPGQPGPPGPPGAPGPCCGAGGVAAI
UniProt Q03692, residues 19-680: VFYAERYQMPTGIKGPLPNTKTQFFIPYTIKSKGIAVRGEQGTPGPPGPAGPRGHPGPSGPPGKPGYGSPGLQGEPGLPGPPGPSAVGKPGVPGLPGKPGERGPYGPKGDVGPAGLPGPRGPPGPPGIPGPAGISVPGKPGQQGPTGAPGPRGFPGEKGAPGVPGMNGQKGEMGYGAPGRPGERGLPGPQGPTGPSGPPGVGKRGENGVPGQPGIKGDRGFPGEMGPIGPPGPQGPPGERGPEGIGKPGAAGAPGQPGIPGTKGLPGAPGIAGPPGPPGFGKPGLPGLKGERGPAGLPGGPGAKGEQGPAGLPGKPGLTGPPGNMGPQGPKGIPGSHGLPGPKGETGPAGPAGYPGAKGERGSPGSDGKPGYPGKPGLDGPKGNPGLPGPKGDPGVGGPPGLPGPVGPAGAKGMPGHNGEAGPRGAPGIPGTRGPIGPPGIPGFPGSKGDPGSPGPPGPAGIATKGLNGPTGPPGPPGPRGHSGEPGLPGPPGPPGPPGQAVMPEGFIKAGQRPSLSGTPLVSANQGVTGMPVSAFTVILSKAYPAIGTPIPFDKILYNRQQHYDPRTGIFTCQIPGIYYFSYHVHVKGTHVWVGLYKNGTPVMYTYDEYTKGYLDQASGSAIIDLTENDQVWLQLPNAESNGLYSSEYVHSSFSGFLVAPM

B1: recombinant human M48K FKBP22 (Met48Lys) (enzyme)
chain: LIPEPEVKIEVLQKPFICHRKTKGGDLKLVHYEGYLEKDGSLFHSTHKHNNGQPIWFTLGILEALKGWDQGLKGMCVGEKRKLIIPPALGYGKEGKGKIPPESTLIFNIDLLEIRNGPRSHESFQEMDLNDDWKLSKDEVKAYLKKEFEKHGAVVNESHHDALVEDIFDKEDEDKDGFISAREFTYKHDEL
notes: The mutation was found in a patient with kEDS; PDB 4MSP is the WT structure (parent); also called mutant FKBP22; source: E. coli BL21 (DE3), solubilised with 2 M urea, purified (Co2+-chelating column, enterokinase cleavage, Phenyl column)
B2: recombinant human wild type FKBP22 (FK506 Binding Protein 22 kDa) (enzyme, UniProt Q9NWM8 21-211)
chain: LIPEPEVKIEVLQKPFICHRKTKGGDLMLVHYEGYLEKDGSLFHSTHKHNNGQPIWFTLGILEALKGWDQGLKGMCVGEKRKLIIPPALGYGKEGKGKIPPESTLIFNIDLLEIRNGPRSHESFQEMDLNDDWKLSKDEVKAYLKKEFEKHGAVVNESHHDALVEDIFDKEDEDKDGFISAREFTYKHDEL

Experiments:
[1] = molecular target: bovine type III collagen (bovine) (UniProt P04258); test: SPR; BIAcore X; collagens immobilised on CM5 chips by amide coupling, FKBP22 injected; 20 °C; HBS-P (10 mM Hepes pH 7.4, 150 mM NaCl, 0.005% Surfactant P20) with 1 mM CaCl2; flow 10 µL/min; steady-state affinity model for type IV collagen - WT FKBP22, Langmuir-binding model for type X collagen - M48K FKBP22; both purified
[2] = molecular target: T1, human recombinant type X collagen (human, UniProt Q03692 19-680); test: as above
T1 construct: type X collagen, human, recombinant; source: 293 cells, purified as described previously

Binder	binding [1]	binding [2]
B1	binds	–
B2	binds	binds
